Data published in paper PMC7819943, “Rice protein-binding microarrays: a tool to detect cis-acting elements near promoter regions in rice”.
This is one part of the list.

These sequences were tested against T1, OsSMF1 (Oryza sativa, UniProt Q6ZLB0 1-436) (assay: protein-binding microarray (RPBM); PBS, 2% BSA, 51.3 ng/ul salmon testes DNA, 50 uM zinc acetate, 200 nM TF, 25 C, 1 h; high values mean tight binding). Conditions: protein: recombinant; tags: N-terminal polyhistidine and DsRed monomer fusion (pET32a); chain copies: 2; label: CyDye5-dUTP incorporated in the synthesized complementary strand; 3' TTTTT single-stranded linker to array surface; dsDNA, one strand shown.
T1 sequence: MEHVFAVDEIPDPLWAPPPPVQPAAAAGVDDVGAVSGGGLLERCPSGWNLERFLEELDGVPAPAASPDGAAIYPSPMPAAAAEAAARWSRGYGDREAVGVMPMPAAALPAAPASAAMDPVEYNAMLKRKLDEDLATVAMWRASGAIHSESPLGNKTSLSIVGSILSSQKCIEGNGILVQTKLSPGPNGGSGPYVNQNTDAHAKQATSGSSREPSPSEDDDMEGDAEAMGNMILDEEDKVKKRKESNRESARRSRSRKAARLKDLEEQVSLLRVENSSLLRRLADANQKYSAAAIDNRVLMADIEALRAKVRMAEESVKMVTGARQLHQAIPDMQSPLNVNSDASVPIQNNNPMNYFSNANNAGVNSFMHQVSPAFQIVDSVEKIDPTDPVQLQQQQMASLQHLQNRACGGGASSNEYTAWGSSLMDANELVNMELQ
How it was run: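 An Axon 4000B scanner gave the binding signal as per-feature fluorescence intensity in arbitrary units. This followed washing of a custom Agilent array that had been incubated for 1 h at 25 °C with 200 nM protein in PBS, 2% BSA, salmon testes DNA and 50 µM zinc acetate. The proteins were transcription factors fused at the N-terminus to polyhistidine and DsRed, expressed in E. coli BL21-CodonPlus and purified on Ni–NTA.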
In the case of “ATATACGATGTTGGTATATTCAGTCACGTATGAGTACTGACGGAGTCACCTAGTGCAG”, the binding signal is reported as 3600 fluorescence intensity (a.u.).
For “AGTTGGTAGCAATTGATTGATTCCCCGTCACACGCACGCACGGAGTCACCTAGTGCAG”, the binding signal was 3970 fluorescence intensity (a.u.).
With “TGGTATAAGTTGCTGTTCAGTGTCAGGTTGGCATCCCTATCGGAGTCACCTAGTGCAG” the binding signal was 3710 fluorescence intensity (a.u.).
For “CAAGTCAACGACGCGCCTCCACATCACCGCCAAGGCCGTGCGGAGTCACCTAGTGCAG”, the binding signal was 5660 fluorescence intensity (a.u.).
For “GCCTCCTCTCGGTGTCAGCTTATCTTCCCGAGCTTCTCTGCGGAGTCACCTAGTGCAG”, the binding signal was 4170 fluorescence intensity (a.u.).
In the case of “TATGCTTCTAATCACCTCCCCGCAGCCACAACTTCATAATCGGAGTCACCTAGTGCAG”, the binding signal is reported as 6060 fluorescence intensity (a.u.).
“GAAATCATGTTTATACCGTTACATATTATACAACTATTAGCGGAGTCACCTAGTGCAG” was tested, and the binding signal was 3690 fluorescence intensity (a.u.).
For “TGCTGTAATTTTGTTCTTGAGCTGTAGCCTGTCTCTCCTGCGGAGTCACCTAGTGCAG”, the binding signal was 3490 fluorescence intensity (a.u.).
For “GCCGAGCCACCGCCGCAGATGCTGTGGCAGCAGGCGAGGTCGGAGTCACCTAGTGCAG”, the binding signal was 3240 fluorescence intensity (a.u.).
In the case of “AAGAAACGGGTGTGGTGTGAGGCGGGCAGTTTGGGTGGATCGGAGTCACCTAGTGCAG”, the binding signal is reported as 3180 fluorescence intensity (a.u.).
“TCCTCCAAAGTAAATTCAGAGTGACGTGGTCACTAATATGCGGAGTCACCTAGTGCAG” was tested, and the binding signal was 11500 fluorescence intensity (a.u.).
“AAAGGCCCAAGCCACCAGCCCACCGCAGGTACATGTCCACCGGAGTCACCTAGTGCAG” was tested, and the binding signal was 3370 fluorescence intensity (a.u.).
With “TTCTTTTCCCATGGCCTCTGACTATGACATTATTTAAACACGGAGTCACCTAGTGCAG” the binding signal was 3440 fluorescence intensity (a.u.).
For “AGTATCACCCTCTACGTGGTAAGAATCGAGATATCATCTGCGGAGTCACCTAGTGCAG”, the binding signal was 3320 fluorescence intensity (a.u.).
For “TCGCCTTGCCCTTCCCCTTGACCTCTTCGTTGACACTGCTCGGAGTCACCTAGTGCAG”, the binding signal was 4310 fluorescence intensity (a.u.).
In the case of “CTATATATGTGACGCTGACGTTCCTCATCTCCCAAGCTGCCGGAGTCACCTAGTGCAG”, the binding signal is reported as 7040 fluorescence intensity (a.u.).
For “CGGCGGCCCTACTATTCACACCCCACGTCGGAGCTCATTGCGGAGTCACCTAGTGCAG”, the binding signal was 4270 fluorescence intensity (a.u.).
In the case of “ATTGTTTAGTATTGCGTTATGTTATGTTACTTTTGATACACGGAGTCACCTAGTGCAG”, the binding signal is reported as 14400 fluorescence intensity (a.u.).
“GAATAAATAGGGGTTGATGACGTGGGTCCGGTCGCGGTTTCGGAGTCACCTAGTGCAG” was tested, and the binding signal was 18500 fluorescence intensity (a.u.).
“GATAGGTCATTATCTAGATTCAGGACGCCATGTCAGCGTGCGGAGTCACCTAGTGCAG” was tested, and the binding signal was 10300 fluorescence intensity (a.u.).
In the case of “GATTTTATTCGACGTGTCAGCTGACTCAGATGGTCGGTAGCGGAGTCACCTAGTGCAG”, the binding signal is reported as 39100 fluorescence intensity (a.u.).
With “GATGCAGTGACATGCATGTCTCCATCCATGCATTCTCCAACGGAGTCACCTAGTGCAG” the binding signal was 4220 fluorescence intensity (a.u.).
In the case of “TATGGTCTCACCTGTCATACACACATTGCGTTTTGGAGTCCGGAGTCACCTAGTGCAG”, the binding signal is reported as 4780 fluorescence intensity (a.u.).
In the case of “TGAATTTCGCTTATGTACATACGTTGCTTTTACCACTAAACGGAGTCACCTAGTGCAG”, the binding signal is reported as 3200 fluorescence intensity (a.u.).
With “GGTGCCGGTGGCGAGGCGGTGGCGCTGCGTGCAGGTCATGCGGAGTCACCTAGTGCAG” the binding signal was 3640 fluorescence intensity (a.u.).
For “CAGCCTCCTCGGCCGTCGCCCACGTGTCACGAGTGCGCTCCGGAGTCACCTAGTGCAG”, the binding signal was 23500 fluorescence intensity (a.u.).
In the case of “AATGGGTAGTTTATGCTCTACTCTGCTGATTCAGGTGATGCGGAGTCACCTAGTGCAG”, the binding signal is reported as 3410 fluorescence intensity (a.u.).
“ATAACCGTAATTACCGAGCGGTTGCGTGACTTGCTGTTGCCGGAGTCACCTAGTGCAG” was tested, and the binding signal was 4270 fluorescence intensity (a.u.).
“AAAGGGACTAAACTTTGGTACCTGTCACATCGGATATTTGCGGAGTCACCTAGTGCAG” was tested, and the binding signal was 3980 fluorescence intensity (a.u.).
For “TGTATTGTGCCCACCCTTGCCCTCCTAGGCTACACCTCACCGGAGTCACCTAGTGCAG”, the binding signal was 4460 fluorescence intensity (a.u.).
For “TCTCCAATCCAAGCTGACTCGACTAAAATGGCTTGATATTCGGAGTCACCTAGTGCAG”, the binding signal was 4400 fluorescence intensity (a.u.).
“CAGTGCTTACACCATTTATGTAATGTGTCTCAATTGCAGTCGGAGTCACCTAGTGCAG” was tested, and the binding signal was 3150 fluorescence intensity (a.u.).
“TCCCGTGACACCGGTGCTGTGGTCATCCGCCTTGCAGGCTCGGAGTCACCTAGTGCAG” was tested, and the binding signal was 27100 fluorescence intensity (a.u.).
In the case of “CATTTAAGGACACTGCCACCCTTTTGCAAGCCACAGGGGACGGAGTCACCTAGTGCAG”, the binding signal is reported as 3690 fluorescence intensity (a.u.).
“TCTATGACTCGTTTATGATTACTTAATCTACCAGGCTCTTCGGAGTCACCTAGTGCAG” was tested, and the binding signal was 3740 fluorescence intensity (a.u.).
In the case of “GGGAGAGTGGGAGAGTGAGAGCGAGGTGGGGATCTGGGAGCGGAGTCACCTAGTGCAG”, the binding signal is reported as 3210 fluorescence intensity (a.u.).
“ACTTGGGATTTGTTGAGTTGGCAACTTTGCTTGGCTCTGCCGGAGTCACCTAGTGCAG” was tested, and the binding signal was 4550 fluorescence intensity (a.u.).
With “AAAAGAAAATAAAATAGCAAAACTCTCAAAAGTAGCAATCCGGAGTCACCTAGTGCAG” the binding signal was 23200 fluorescence intensity (a.u.).
With “GTTCCCTTTGTATTTCACACCTTGAGATGGTGACTGATCCCGGAGTCACCTAGTGCAG” the binding signal was 3940 fluorescence intensity (a.u.).
With “GCTCGACCGTCGTCCGGACTCATGACGAGTGTCACACGGCCGGAGTCACCTAGTGCAG” the binding signal was 3910 fluorescence intensity (a.u.).
With “AACCAAACGCTAGAAATCGCTCGTCACACATCAGTCCCGGCGGAGTCACCTAGTGCAG” the binding signal was 4000 fluorescence intensity (a.u.).
For “CGCTTCCGCTTCCTCTCCCTCTCATCTTCCTCGGCCCCATCGGAGTCACCTAGTGCAG”, the binding signal was 21700 fluorescence intensity (a.u.).
